According to article PMC3815135:
Results are given in words; binding and its absence hold for the method and conditions named.

Chains of the proteins cited; added tags and fusions are not shown. Lines headed by an entry give the natural chain unless they say otherwise; changes in a name come on top.
UniProt P55980: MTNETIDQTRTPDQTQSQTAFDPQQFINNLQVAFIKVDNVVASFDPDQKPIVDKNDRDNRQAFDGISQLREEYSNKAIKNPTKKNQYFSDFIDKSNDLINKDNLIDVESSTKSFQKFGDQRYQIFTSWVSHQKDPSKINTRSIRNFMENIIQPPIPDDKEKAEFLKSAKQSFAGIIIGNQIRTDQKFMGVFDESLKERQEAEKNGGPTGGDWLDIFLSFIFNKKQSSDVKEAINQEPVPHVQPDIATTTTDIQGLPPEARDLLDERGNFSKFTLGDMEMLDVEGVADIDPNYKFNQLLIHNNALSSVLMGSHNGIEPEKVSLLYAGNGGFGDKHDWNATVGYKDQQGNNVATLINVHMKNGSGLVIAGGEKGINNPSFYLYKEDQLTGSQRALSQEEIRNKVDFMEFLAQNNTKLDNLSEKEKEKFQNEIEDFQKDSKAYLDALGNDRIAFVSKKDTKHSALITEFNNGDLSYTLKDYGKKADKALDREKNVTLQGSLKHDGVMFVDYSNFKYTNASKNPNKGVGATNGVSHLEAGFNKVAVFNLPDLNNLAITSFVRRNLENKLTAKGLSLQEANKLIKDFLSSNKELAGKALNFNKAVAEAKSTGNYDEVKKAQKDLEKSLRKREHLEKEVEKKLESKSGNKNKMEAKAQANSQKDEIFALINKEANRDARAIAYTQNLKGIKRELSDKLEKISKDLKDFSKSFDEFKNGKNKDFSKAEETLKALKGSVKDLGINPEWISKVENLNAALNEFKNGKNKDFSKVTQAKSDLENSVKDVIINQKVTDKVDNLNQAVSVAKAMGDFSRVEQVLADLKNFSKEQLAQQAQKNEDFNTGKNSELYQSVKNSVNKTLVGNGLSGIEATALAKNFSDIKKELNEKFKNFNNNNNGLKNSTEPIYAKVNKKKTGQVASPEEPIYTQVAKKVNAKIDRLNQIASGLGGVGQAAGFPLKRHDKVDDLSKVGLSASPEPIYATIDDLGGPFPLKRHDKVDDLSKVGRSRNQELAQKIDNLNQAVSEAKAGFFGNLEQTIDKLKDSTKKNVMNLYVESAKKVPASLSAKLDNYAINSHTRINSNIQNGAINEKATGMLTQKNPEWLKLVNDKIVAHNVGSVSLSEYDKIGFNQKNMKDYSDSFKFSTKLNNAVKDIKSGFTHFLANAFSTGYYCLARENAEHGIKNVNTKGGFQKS

Tests used:
Assay in all cases: SEC-MALS; Superdex 200 10/300 in buffer D (30 mM NaAc pH 4.6, 200 mM NaCl), 0.4 ml/min; 50 µl of protein at 5-7 mg/ml loaded; in-line MALS, refractive index and QELS detectors; both purified
[1] = molecular target: CagA EPIYA-repeats domain, residues 893-1001 (H. pylori strain 26695) (UniProt P55980)
[2] = molecular target: CagA N-terminal domain, residues 22-234 (H. pylori strain 26695) (UniProt P55980)
[3] = molecular target: CagA middle domain stable core fragment, residues 267-807 (H. pylori strain 26695) (UniProt P55980)
[4] = molecular target: CagA middle domain, residues 257-880 (H. pylori strain 26695) (UniProt P55980)

Substance: CagA EPIYA-repeats domain, residues 893-1001 (from UniProt P55980 893-1001) (domain or fragment)
- binding [1]: no binding (tested: 5-7 mg/ml)

Substance: CagA N-terminal domain, residues 22-234 (from UniProt P55980 22-234) (domain or fragment)
- binding [2]: no binding (tested: 5-7 mg/ml)

Substance: CagA middle domain stable core fragment, residues 267-807 (from UniProt P55980 267-807) (domain or fragment)
- binding [3]: no binding (tested: 5-7 mg/ml)

Substance: CagA middle domain, residues 257-880 (from UniProt P55980 257-880) (domain or fragment)
- binding [4]: no binding (tested: 5-7 mg/ml)
